According to PubChem BioAssay AID2685 (National Center for Advancing Translational Sciences (NCATS), 2010):
In all, about 320,000 compounds went through this assay and about 2,100 (0.66%) were called active. Inconclusive means that the source gave no clear call. Such entries were picked first, then a sample of the others. Calls come from the whole dose curve; as a rule, active = well fitted inhibition curve with a large enough effect in the signal ratio, with a control signal flat (not every such curve was filed as active); inconclusive = small, poorly fitted or top-dose-only effect, or effect the other way, or a change in a side signal; inactive = flat fitted curve, though single readings scatter; the % refers to the signal ratio. A potency beside an inconclusive call is a rough fit, not a confirmed value.
% is set by controls: 0 for no effect and ±100 for the full control effect; potency is the fitted concentration of half-maximal effect.

Experiment: qHTS Assay for Lipid Storage Modulators in Drosophila S3 Cells
Conditions: BODIPY lipid droplet fluorescence, 18-24 h, cells fed with added oleic acid; lipid storage change, negative = inhibition: at 46.1 µM (top of the series) unless noted
Outline: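 Laser-scanning cytometry quantifies lipid droplet accumulation (500–530 nm total intensity; droplet/cell object ratio) in oleic acid-fed (400 uM added) Drosophila S3 cells treated with a concentration series. 20 uM Triacsin C defined 100% inhibition.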
With `COc1ccc(C(=O)Oc2cccnc2)cc1` the lipid storage change, negative = inhibition was inconclusive: 0.274%.
In the case of `Cc1cccc(-[n+]2c(C)cc(C)c3c(=O)[nH]c(=O)[nH]c32)c1`, the lipid storage change, negative = inhibition is reported as inconclusive: -0.846%.
With `CCC(=O)N1CCc2cc(S(=O)(=O)CCC(=O)O)ccc21` the lipid storage change, negative = inhibition was inconclusive: 6.32%.
For `O=C(Nc1ccc(Br)c2cccnc12)c1ccc(Cn2cc([N+](=O)[O-])cn2)o1`, the lipid storage change, negative = inhibition was inconclusive: -15.6%.
In the case of `CCOC(=O)c1c(C)[nH]c(C)c1C(=O)COC(=O)c1cc2ccccc2cc1OC`, the lipid storage change, negative = inhibition is reported as inconclusive: 2.35%.
In the case of `Cc1ccc2cc(C#N)c(N3CCCN(S(=O)(=O)c4ccccc4)CC3)nc2c1`, the Potency is reported as inconclusive: 11.6 µM [activator, partial curve, poor fit].
For `Oc1ccc(-c2n[nH]c(=S)n2-c2ccc3c(c2)OCCO3)c(O)c1`, the lipid storage change, negative = inhibition was inconclusive: 7.64%.
With `Cc1cc(=O)oc2cc(OC(C)C(=O)O)c(Cl)cc12` (stereo not drawn) the lipid storage change, negative = inhibition was inconclusive: -17.5%.
For `COC(=O)c1ccccc1NC(=O)CCS(=O)(=O)c1cc2c(cc1C)NC(=O)CO2`, the Potency was inconclusive: 23.1 µM [falling, single point].
In the case of `Cc1noc(C)c1COC(=O)CCCNC(=O)c1ccc(Cl)cc1`, the lipid storage change, negative = inhibition is reported as inconclusive: 15.2%.
In the case of `COc1ccc(C2(C(=O)N3CCOCC3)CCOCC2)cc1OC`, the lipid storage change, negative = inhibition is reported as inconclusive: -71.9%.
With `CN(Cc1ccc(Cl)cc1)C(=O)COC(=O)c1ccc(-c2ccc(O)cc2)cc1` the Potency was inconclusive: 29.1 µM [activator, partial curve, poor fit].
In the case of `Cn1c2ccccc2n2c(=O)c(Cl)c(-c3ccccc3)c(C#N)c12`, the lipid storage change, negative = inhibition is reported as inconclusive: -6.83%.
In the case of `Cc1ccc(CSc2nc3ccccc3c(=O)n2C)cc1`, the Potency is reported as active: 16.4 µM.
For `CCc1ccc(CN(C)C(=O)c2cccc(S(=O)(=O)Nc3ccccc3OC)c2)cc1`, the lipid storage change, negative = inhibition was “inconclusive”.
In the case of `Cc1cc(C(F)F)n2nc(C(=O)Nc3cc(C)on3)nc2n1`, the lipid storage change, negative = inhibition is reported as inconclusive: 6.11%.
In the case of `CC(=O)N(Cc1c(C)nn(-c2ccccc2)c1Cl)c1ccc(Cl)cc1`, the Potency is reported as inconclusive: 8.2 µM [activator, partial curve, poor fit].
In the case of `COc1ccc(CCN(C)C(=O)c2c(C)nn(-c3ccccc3)c2C)cc1OC`, the lipid storage change, negative = inhibition is reported as inconclusive: 40%.
For `CCOC(=O)C1CCCN(C2=C(NS(=O)(=O)c3ccc(Br)cc3)C(=O)c3ccccc3C2=O)C1` (stereo not drawn), the Potency was inconclusive: 6.51 µM [falling, single point].
For `c1cncc(CSc2nnc3ccc(-c4ccncc4)nn23)c1`, the lipid storage change, negative = inhibition was inconclusive: -20.5%.
In the case of `CCOc1ccccc1OCCCC(=O)NC1=NCCS1`, the Potency is reported as inconclusive: 29.1 µM [rising, single point].
With `Cn1nc(-c2ccccc2)cc1NC(=O)Nc1ccc(F)cc1` the lipid storage change, negative = inhibition was inconclusive: -9.43%.
For `O=C(/C=C/c1ccccc1[N+](=O)[O-])c1ccccc1Br`, the lipid storage change, negative = inhibition was inconclusive: -44.1% [at 0.00295 µM].
In the case of `CCC(C)(C)n1nnnc1CN1CCN(c2nc3ccc(C)cc3cc2C#N)CC1`, the lipid storage change, negative = inhibition is reported as inconclusive: -20.5%.
For `O=C(NNC(=O)C1CC=CCC1)c1ccccc1Br` (stereo not drawn), the lipid storage change, negative = inhibition was inconclusive: 13.1%.
In the case of `Cc1nc2sccn2c(=O)c1S(=O)(=O)Nc1ccc(N2CCOCC2)c(Cl)c1`, the lipid storage change, negative = inhibition is reported as inconclusive: 3.86%.
For `CCOc1ccc(C(=O)NCC(=O)NC(C)c2ccc(-n3ccnc3)cc2)cc1OCC` (stereo not drawn), the lipid storage change, negative = inhibition was inconclusive: 17.3%.
For `COc1ccc2cc(C(c3nnnn3C(C)(C)C)N3CCc4ccccc4C3)c(=O)[nH]c2c1` (stereo not drawn), the lipid storage change, negative = inhibition was inconclusive: 3.71%.
For `Cc1ccc(-n2ncc3c2CCCC3NC(=O)CCCN2CCCC2=O)cc1C` (stereo not drawn), the lipid storage change, negative = inhibition was inconclusive: -38.1%.
For `CC1(C)CC(=O)C=C(NCCN2CCN(C(=O)Nc3ccc(Cl)c(Cl)c3)CC2)C1`, the Potency was inconclusive: 29.1 µM [activator, single point].
For `O=C(CSc1nc2sc3c(c2c(=O)n1-c1ccccc1)CCCC3)N/N=C/c1ccccc1C(=O)O`, the Potency was inconclusive: 18.4 µM [falling, partial curve].
In the case of `Cc1nc(NC(=O)CCc2ccccc2)sc1C`, the lipid storage change, negative = inhibition is reported as inconclusive: -38.8%.
For `CC(=O)c1ccc(OCc2cc(C(=O)N3CC4C[C@@H]5CC3C[C@H](C4)C5)no2)cc1`, the Potency was inconclusive: 20.6 µM [falling, single point].
In the case of `Cc1ccccc1CN1CCN(C(=O)c2ccc(S(=O)(=O)NCc3ccco3)cc2)CC1`, the Potency is reported as inconclusive: 3.66 µM [activator, full curve].
For `CCOc1cccc2cc(C(N)=O)c(=NCc3ccccc3)oc12`, the Potency was inconclusive: 4.11 µM [activator, single point].
For `CCn1c(COc2cccc3cccnc23)nnc1SC(F)F`, the lipid storage change, negative = inhibition was inconclusive: -36.8% [at 0.369 µM].
In the case of `O=C1NC2(CCSC2)C(=O)N1CC(=O)N(Cc1ccccc1)C1CCS(=O)(=O)C1` (stereo not drawn), the lipid storage change, negative = inhibition is reported as “inactive”.
In the case of `C=CCNC(=O)/C(C#N)=C/c1ccc(C(=O)O)cc1`, the Potency is reported as inconclusive: 1.84 µM [falling, partial curve].
For `COc1ccc(N(CC(=O)NC2CCCC2)C(=O)CCC(=O)Nc2cc(C)on2)cc1`, the Potency was inconclusive: 29.1 µM [falling, single point].
For `CCOC(=O)C1CCCN(c2c(N3CCN(C4CCCCC4)CC3)c(=O)c2=O)C1` (stereo not drawn), the lipid storage change, negative = inhibition was inconclusive: 7.49%.
In the case of `O=C(Nc1ccccc1N1CCCCC1)c1ccc(Cl)cc1`, the lipid storage change, negative = inhibition is reported as “inactive”.
In the case of `CC(C)CCN1CCC(C)(NC(=O)c2ccccc2)C1=O` (stereo not drawn), the Potency is reported as inconclusive: 4.61 µM [rising, single point].
With `CC(C(=O)NC1CCCCC1)N1C(=O)c2cccc3cccc1c23` (stereo not drawn) the lipid storage change, negative = inhibition was inconclusive: -31.3%.
With `CCCNC(=O)NC1CCCc2ccccc21` (stereo not drawn) the lipid storage change, negative = inhibition was inconclusive: 28.4% [at 9.22 µM].
In the case of `Cc1ccc(C(=O)C2=C(O)C(=O)N(Cc3ccco3)C2c2ccc(N(C)C)cc2)o1` (stereo not drawn), the Potency is reported as inconclusive: 6.51 µM [activator, partial curve, poor fit].
In the case of `Cc1cc(C(=O)COc2ccc(F)cc2Br)c(C)n1C`, the lipid storage change, negative = inhibition is reported as inconclusive: 7.79%.
With `Cc1n[nH]c(=O)c2c(NC(=O)CSc3cc(Cl)ccc3Cl)oc(C)c12` the lipid storage change, negative = inhibition was inconclusive: 19.7%.
With `C/C(=N\NC(=O)Cn1ccc(C(F)(F)F)n1)c1ccc2c(c1)OCO2` the lipid storage change, negative = inhibition was inconclusive: 2.26%.
